Values quoted from earlier work as cited in paper PMC4967259 (The American journal on addictions / American Academy of …, 2016).

How the values were obtained:
BuChE = settings: rat brain homogenate; cited from earlier work
[1] = cited from earlier work

For COc1cc2c(cc1OC)C(=O)C(CC1CCN(Cc3ccccc3)CC1)C2 (stereo not drawn) [Donepezil, donepezil], the “inhibition of BuChE” value (BuChE) is given as “only weak inhibition”, the elimination half-life [1] is given as 73.5 h and the protein binding [1] is given as “highly protein bound”.
